These are yes or no findings as the source states them, for the method shown. In cells and extracts the contact can be indirect. Binding can be weak; no strength is given.
Target: Cyclin-dependent kinase 4
Assay: co-IP; COS-1 cells cotransfected with pcDNA3-ccndx-myc and pcDNA3-cdk4-HA; lysate in IP-lysis buffer (150 mM NaCl, 20 mM HEPES pH 7.2, 1% NP-40) at 72 h; Protein A/G PLUS-Agarose; legend: IP with anti-HA, detection with anti-Myc (methods: IP with anti-myc, blot with anti-HA)

binding: binds
B1: zebrafish cyclin Dx (protein, UniProt D3GDI9 1-297)
chain: MSVSLWCEEDSGRDRTHQASVRAPWDPSASGQRVIQRLLQSEERYLPSSLYISLVQREPQRREELAKWTMEVCCECDCDESVFPLAVSLLDRYLSATLSLPVSPSCLAAACILLASKVTESDTVSADTLCAAAEYDFLSANLREMERVVLATLRWDVLAVTPQDFIPLFLRTLGELRDGDGHTGDFLTTMRRHGDTLVAMCVCDSRFLGTPPSLVAAAALNSALRGLRARSAGEMSLMTAALATLCQTDVALLQCCTELIDGALRERLRTGAQEQKDGDIEEEERASTPTDLREIDF

Source: article PMC4915019
